PubChem BioAssay AID1347423 (Functional Genomics Laboratory (NCATS/FGL), 2020)
Among all 52,000 sequences or so, about 210 (0.4%) were called active.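 How the source made its calls: active means gene whose silencing raises cell survival under the drug, median off-target-corrected z-score across its silencing RNAs 2 or more; inactive means the rest.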 This is one part of the list.

Experiment: Resistance to Poly (ADP-Ribose) Polymerase inhibitor: Gene Identification via Genome-wide siRNA Screen
Settings: mouse BRCA2 R2336H ES cells, olaparib, CellTiter-Glo viability; active compounds read high
Method in brief: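 Genome-wide siRNA screen (3 siRNAs/gene, 20 nM) in mouse ES cells carrying hypomorphic BRCA2 R2336H; olaparib 500 nM added 48 h post-transfection, CellTiter-Glo viability 72 h later. Normalized to plate-median negative control; MAD z-scores, gene median, seed-adjusted.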

| Sequence | z-score |
| --- | --- |
| CGUGCACUUAGAAAACCCGTT against Garnl3 | inactive: -0.909 |
| GGCAUGUUGAUGGGAAUUUTT against Srp9 | inactive: -1.67 |
| GCACAAACCCUCGAACUUGTT against Nkx6-2 | inactive: 0.043 |
| GGAAUCCUUUAUUCUUGUATT against 4931408L03Rik | inactive: -0.94 |
| GGGCCUCCUUCUCAUCAUUTT against Scarf2 | inactive: -0.678 |
| GGGUAUUAAUGCCUCUGCATT against Ebi2 | inactive: -0.725 |
| GGUGCUGAAGAUGUGUUGATT against Phospho1 | inactive: -0.747 |
| CCAUAUUUGAAGAAGUCCATT against Espl1 | inactive: -0.535 |
| GGCCAAGAGGAUCAUGUCATT against 4933433C09Rik | inactive: 0.396 |
| CUAUUUGGUAGCCUAACUUTT against Acsl1 | inactive: -0.0528 |
| GCUACAGACUGAACAAUGATT against Rbm17 | inactive: -1 |
| CCGUUUUUCAACGACGAGUTT against Fcna | inactive: 0.571 |
| CCGUUACUACAAAUUCUAUTT against Zcchc8 | inactive: -0.0793 |
| CGAACCACUUGUUUAAAAUTT against Cops2 | inactive: -1.69 |
| GCAAGACUGGCAAAGCUUCTT against C130022K22Rik | inactive: -0.466 |
| GCAGAAUAUUAACCAGUGUTT against Ptp4a2 | inactive: 0.668 |
| GGAAGUCAAGUAGAACUGUTT against Agtr2 | inactive: -0.604 |
| GGUAAACCGAGUGAUGACCTT against 1700019E19Rik | inactive: 0.285 |
| GCUGAAUUGCUGGUAGAUUTT against AL022818 | inactive: -1.03 |
| GGGUAGAGACUACUUAGUATT against Pramel7 | inactive: -0.925 |
| GGGAAGGCUGUGAAUACAGTT against Syt7 | inactive: 1.83 |
| GGCUUUGACCUUUAUCACCTT against 4930556P03Rik | inactive: 0.0122 |
| GGUUUUUGAAGAGUUAACATT against D16Ertd472e | inactive: 0.691 |
| CGGUUUUGACCUUCCACCUTT against Olfr110 | inactive: -0.377 |
| GCCUAUGCAGCUCUCUCUGTT against Acat3 | inactive: 0.495 |
| GGUUAUCUUCUCUGUAACGTT against AU022521 | inactive: -0.856 |

| Sequence | z-score |
| --- | --- |
| GGAGAUACAGAAAUUUCUCTT against Baat | inactive: 0.517 |
| CCCACCUAAAGAGAACAAATT against 2900006K08Rik | inactive: -0.0729 |
| GGACAAAGAUGAAUAUGUGTT against Spag6 | inactive: 0.0984 |
| GGUCAUUCUAGUCCAGGAUTT against Pkd1l2 | inactive: 0.908 |
| GGAUCAUGAUUAGUUACAATT against Pdzrn3 | inactive: -1.47 |
| GGGAGCCAAUGAAAUCAAGTT against F830020C16Rik | inactive: 1.64 |
| GGUUCUCUGAAAUAAACUUTT against 9530002B09Rik | inactive: -0.575 |
| GGAGUGGACUCACGUCUAATT against Crsp3 | inactive: -0.634 |
| GCCAUCCGAUGCCUUAAUUTT against Mtap | inactive: 0.0555 |
| GCUGAUUAUCACAUCAGUGTT against Dph2l1 | inactive: 0.948 |
| GGAAGGAGACACAGAAGAGTT against Mlp | inactive: -0.343 |
| GCACCACACGGAUGAGUUUTT against Tgm1 | inactive: 0.207 |
| CCAUAUACCCUUGAAUUCCTT against 2500001K11Rik | inactive: -0.552 |
| CCCUCAACCUGCAUUUUAATT against Lgals2 | inactive: 0.675 |
| GCAGGAAUGUUCAGAAACATT against 4932441K18 | inactive: -1.27 |
| GGUGUACGUCCUACAAGGUTT against Pofut2 | inactive: 0.641 |
| GGAUUUUCAUACAAGGGCATT against Fmn | inactive: 1.49 |
| GGACUUGAGUCAGCUCAUCTT against Fastk | inactive: 0.00409 |
| GGCUGCUGAUUAUAUGUUCTT against Sprr2e | inactive: -0.5 |
| GGAUAACCUUUUUGAAUGGTT against Ube2j1 | inactive: 0.171 |
| GCGUAUUACGAAAGAUGUGTT against 2810441A10Rik | inactive: -0.939 |
| GGCCUUAGUUUAUACAUGUTT against Dusp18 | inactive: -0.0857 |
| GGGCUAGCUAACCACAAUUTT against Glipr2 | inactive: -0.542 |
| GGCCUUUAAGACCAUUCGATT against Scyl1 | inactive: 0.0871 |
| GGAUGGACCUGUUGUGAUUTT against Ssr2 | inactive: 1.01 |
| GCAAUUGUUAGAAAAAGGGTT against Rnasel | inactive: 0.426 |

| Sequence | z-score |
| --- | --- |
| GGGUAGCUUUAAAUAAAGGTT against Olfr801 | inactive: 1.81 |
| GGGUAUAGAAUUGUCUAUUTT against Fn1 | inactive: -1.63 |
| GGUAUGUCUGCAUAAAUGUTT against Cyp2c38 | inactive: -0.175 |
| GUACCUAGGCAUCAAUGUCTT against Trhr2 | inactive: -1.17 |
| GCAAUGUUCAAUAUCCAAGTT against Fut9 | inactive: 0.412 |
| GGUUUUCGAUCAAGCCAUUTT against 1110002H13Rik | inactive: -1.25 |
| GGAGAGAAUAAGAAGAAGATT against Ptprc | inactive: -1.05 |
| GGCUUUUGACAAGCAUAUGTT against Snrpn | inactive: -0.877 |
| GCUCAUCGUGUUUUCAACCTT against Cbr3 | inactive: 0.00324 |
| GGUGAUGGUGUAAAAUACATT against Dab2 | inactive: 1.46 |
| CCACAAUGAAUGGUAUUUGTT against A230035L05Rik | inactive: 0.867 |
| GGGAGUUACCGUUUUGUAUTT against Herc1 | inactive: 1.58 |
| GGUGUGUCGAAGUCGAAGGTT against Pip5kl1 | inactive: -0.569 |
| GGUCAAAGUGUAACUUGUUTT against BC016198 | inactive: -1.68 |
| GGCAUGGAGAUGCUACUGATT against Ptk2 | inactive: 0.419 |
| GGCUGCUACACAUGCAGAUTT against Gucy2e | inactive: -1.75 |
| GGACUUCAGAGUGGACAUUTT against Rgpr | inactive: 0.19 |
| CGAGGACAAAAAUACCGACTT against Supt6h | inactive: -0.864 |
| GGAAUGAACCUAUCUUAUATT against Prkab1 | inactive: 1.14 |
| GGACACCAGUACCUGAAACTT against 9330133O14Rik | inactive: -0.158 |
| GGAUCAUUAGCAAACACAATT against Capn1 | inactive: 3.16 |
| CCAGUACCUCAAUAUCAAATT against Lsm2 | inactive: -0.455 |
| GGAGAAAGAGAUUCCUAUUTT against 1810015M01Rik | inactive: 0.865 |
| CCAUUUUAGACUACAUCCATT against 1200013P24Rik | inactive: 0.0214 |
| GGGAAACAUCCUCAGGGAUTT against D1Ucla4 | inactive: -0.536 |
| GCUGACCUUUGUAAGUUAUTT against Ttc17 | inactive: -0.043 |

Part of the list above in a different format.
Sequence	z-score
GGCCAAGAGGAUCAUGUCATT against 4933433C09Rik	inactive: 0.396
CUAUUUGGUAGCCUAACUUTT against Acsl1	inactive: -0.0528
GCUACAGACUGAACAAUGATT against Rbm17	inactive: -1
CCGUUUUUCAACGACGAGUTT against Fcna	inactive: 0.571

Continuation.

| Sequence | z-score |
| --- | --- |
| CCAAGAGAACUAUUCAGUUTT against Tuba8 | inactive: -0.0512 |
| GGUCAGUCGUAUGAAAUCCTT against Tcfcp2l1 | inactive: 2.87 |
| GCUGAUAACAGACAUCAUCTT against Pitpnm2 | inactive: -0.0692 |
| CGGUGUUUGAAAUCGUGCATT against Dgcr6 | inactive: 2.4 |
| GGCUCAUGACCACCAAAACTT against 2600002E23Rik | inactive: 1 |
| GGGUAGUGGCAGAUUUGGATT against 2610042O14Rik | inactive: 0.521 |
| GGACCAAAGAUGCAUCAGUTT against Zfyve16 | inactive: -1.18 |
| GGAUGUGUUGUCUUUGGAUTT against A230063L24Rik | inactive: -0.753 |
| GGUUCUGGAUUUCUGUUUUTT against N28178 | inactive: 0.188 |
| GCUUCAUCGCAUGAACCGATT against Rabggtb | inactive: -0.827 |
| GGCACUCCAUAGUGAUUUCTT against 5730522E02Rik | inactive: 0.8 |
| CCAAUGCUUCGUGAAAGACTT against Eras | inactive: -2.32 |
| AAUCUUUUCGUGAAGGCACTT against BC049807 | inactive: 0.404 |
| GGUUCCAAGUCUAGUGGUGTT against Hn1 | inactive: -0.0597 |
| GGAAUAUGCUGUCAAGAUCTT against Mknk2 | inactive: 0.678 |
| GGAUAAAGGAAAAGAAACATT against Rcvrn | inactive: -1.59 |
| GGCGUGAACCAAACAGACUTT against Calcrl | inactive: -0.694 |
| GCCGGUGAAUAAUCAUGCUTT against Nrn1 | inactive: 0.787 |
| GGCAUUCCAGUAAAGGAGCTT against Fbxw4 | inactive: 0.019 |
| GCCAAGUAAAACCAAAUGUTT against D18Ertd653e | inactive: -0.11 |
| GGAAAGCAAGUCGUAAGCCTT against Mrps10 | inactive: 1.19 |
| CCGUCUGGACAACAAACACTT against P2rx5 | inactive: 0.84 |
| GGUUUUAAAGCACUUUGUATT against AI591476 | inactive: -0.948 |
| GGACAUUGUCUAUUAUUGGTT against Gabrd | inactive: -0.882 |
| GGUGCUUAUAUUGCUUCCCTT against Psmb5 | inactive: -2.93 |
| GGAUUUUAAACCUUAAGGUTT against Ssty1 | inactive: 0.28 |
